From patent US20170189504A1, “NOVEL PEPTIDES AND COMBINATION OF PEPTIDES FOR USE IN IMMUNOTHERAPY AGAINST VARIOUS CANCERS” (immatics biotechnologies GmbH, priority 2015, published 2017)
For some of these results: For expression read-outs the peptide stands for its source gene, whose mRNA was measured; the gene is not named for every peptide.

Assays:
[1] = system: HLA-A*02; test: Identification and relative LC-MS quantitation of HLA-A*02-presented tumor-associated peptides on tissue samples (presentation profiles, Tables 13A, 13B, 15, FIG. 1); design: species or system human; key to Presentation score NHL / Presentation score CLL / Presentation score BRCA / Presentation score AML / Presentation score GB / Presentation score NSCLC / Presentation score GBC_CCC / Presentation score UEC / Presentation score MEL / Presentation score OSCAR / Presentation score GC / Presentation score UBC / Presentation score OC / Presentation score RCC / Presentation score CRC / Presentation score PCA / Presentation score HCC / Presentation score PC / Presentation score SCLC: specifically presented on tumors (++++); very highly over-presented on tumors compared to a panel of normal tissues (+++); highly over-presented on tumors compared to a panel of normal tissues (++); over-presented on tumors compared to a panel of normal tissues (+); settings: for Peptide Presentation on cancer entities: HLA-A*02-binding tumor-associated peptides
[2] = system: source genes (mRNA); test: Gene and exon expression of source genes, TCGA tumor samples compared with normal tissue samples (Lonsdale, 2013) (Table 17); design: species or system human
[3] = system: source genes (mRNA); test: Expression profiling of source genes by in-house RNASeq of tumor and normal tissues (Table 18, FIG. 2); design: species or system human; key: very highly over-expressed in tumors compared to a panel of normal tissues (+++); highly over-expressed in tumors compared to a panel of normal tissues (++); over-expressed in tumors compared to a panel of normal tissues (+); settings: source gene of peptide

33: peptide found in STAT1 (gene looked up) (YIKTELISV; listed as Homo sapiens) [compound 33]
Presentation score OSCAR ([1]; HLA-A*02 peptides, esophageal cancer, including cancer of the gastric-esophageal junction (N = 17) vs panel of normal tissues (N = 262)): ++++
Presentation score GC ([1]; HLA-A*02 peptides, gastric cancer (N = 29) vs panel of normal tissues (N = 262)): ++++
Presentation score NHL ([1]; HLA-A*02 peptides, non-Hodgkin lymphoma (N = 18) vs panel of normal tissues (N = 262)): ++++
Presentation score NSCLC ([1]; HLA-A*02 peptides, non-small cell lung cancer (N = 90) vs panel of normal tissues (N = 262)): ++++
Presentation score OC ([1]; HLA-A*02 peptides, ovarian cancer (N = 20) vs panel of normal tissues (N = 262)): ++++
Peptide Presentation on cancer entities ([1]; Table 13A, cancer entities on which the peptide was found presented): GC, NSCLC, OSCAR, OC, NHL
Peptide Presentation on cancer entities ([1]; Table 13B, presentation on additional cancer entities): HCC
Target coverage: over-expression category of source gene, BLCA ([2]; Bladder urothelial carcinoma (N = 408), cutoff more than 2-fold above highest 75% percentile of normal tissue samples): B (>= 20% of tumors above the cutoff, but <50%)
Target coverage: over-expression category of source gene, BRCA ([2]; Breast cancer (N = 1104), cutoff more than 2-fold above highest 75% percentile of high and medium risk normal tissue samples): B (>= 20% of tumors above the cutoff, but <50%)
Target coverage: over-expression category of source gene, CHOL ([2]; Cholangiocarcinoma (N = 36), cutoff more than 2-fold above highest 75% percentile of normal tissue samples): A (>=50% of tumors above the cutoff)
Target coverage: over-expression category of source gene, KIRC ([2]; Clear cell kidney carcinoma (N = 534), cutoff more than 2-fold above highest 75% percentile of normal tissue samples): B (>= 20% of tumors above the cutoff, but <50%)
Target coverage: over-expression category of source gene, READ ([2]; Colon and rectal adenocarcinoma (N = 167), cutoff more than 2-fold above highest 75% percentile of normal tissue samples): C (>=5% of tumors above the cutoff, but <20%)
Target coverage: over-expression category of source gene, COAD ([2]; Colon and rectal adenocarcinoma (N = 462), cutoff more than 2-fold above highest 75% percentile of normal tissue samples): B (>= 20% of tumors above the cutoff, but <50%)
Target coverage: over-expression category of source gene, ESCA ([2]; Esophageal cancer (N = 185), cutoff more than 2-fold above highest 75% percentile of normal tissue samples): A (>=50% of tumors above the cutoff)
Target coverage: over-expression category of source gene, GBM ([2]; Glioblastoma multiforme (N = 169), cutoff more than 2-fold above highest 75% percentile of normal tissue samples): C (>=5% of tumors above the cutoff, but <20%)
Target coverage: over-expression category of source gene, LIHC ([2]; Liver hepatocellular carcinoma (N = 374), cutoff more than 2-fold above highest 75% percentile of normal tissue samples): B (>= 20% of tumors above the cutoff, but <50%)
Target coverage: over-expression category of source gene, LGG ([2]; Lower grade glioma (N = 534), cutoff more than 2-fold above highest 75% percentile of normal tissue samples): C (>=5% of tumors above the cutoff, but <20%)
Target coverage: over-expression category of source gene, LUAD ([2]; Lung adenocarcinoma (N = 517), cutoff more than 2-fold above highest 75% percentile of normal tissue samples): A (>=50% of tumors above the cutoff)
Target coverage: over-expression category of source gene, LUSC ([2]; Lung squamous cell carcinoma (N = 503), cutoff more than 2-fold above highest 75% percentile of normal tissue samples): B (>= 20% of tumors above the cutoff, but <50%)
Target coverage: over-expression category of source gene, DLBC ([2]; Lymphoid neoplasm diffuse large B-cell lymphoma (N = 48), cutoff more than 2-fold above highest 75% percentile of normal tissue samples): A (>=50% of tumors above the cutoff)
Target coverage: over-expression category of source gene, OV ([2]; Ovarian serous cystadenocarcinoma (N = 309), cutoff more than 2-fold above highest 75% percentile of normal tissue samples): B (>= 20% of tumors above the cutoff, but <50%)
Target coverage: over-expression category of source gene, PAAD ([2]; Pancreatic ductal adenocarcinoma (N = 179), cutoff more than 2-fold above highest 75% percentile of normal tissue samples): C (>=5% of tumors above the cutoff, but <20%)
Target coverage: over-expression category of source gene, KIRP ([2]; Papillary kidney carcinoma (N = 291), cutoff more than 2-fold above highest 75% percentile of normal tissue samples): B (>= 20% of tumors above the cutoff, but <50%)
Target coverage: over-expression category of source gene, PRAD ([2]; Prostate adenocarcinoma (N = 498), cutoff more than 2-fold above highest 75% percentile of normal tissue samples): C (>=5% of tumors above the cutoff, but <20%)
Target coverage: over-expression category of source gene, SKCM ([2]; Skin cutaneous melanoma (N = 473), cutoff more than 2-fold above highest 75% percentile of normal tissue samples): B (>= 20% of tumors above the cutoff, but <50%)
Target coverage: over-expression category of source gene, STAD ([2]; Stomach adenocarcinoma (N = 415), cutoff more than 2-fold above highest 75% percentile of normal tissue samples): B (>= 20% of tumors above the cutoff, but <50%)
Target coverage: over-expression category of source gene, UCEC ([2]; Uterine corpus endometrial carcinoma (N = 546), cutoff more than 2-fold above highest 75% percentile of normal tissue samples): B (>= 20% of tumors above the cutoff, but <50%)
Expression score BRCA ([3]; BRCA tumors vs panel of normal tissues): ++
Expression score OSCAR ([3]; esophageal cancer incl. gastric-esophageal junction (N = 11) vs panel of normal tissues): ++
Expression score GC ([3]; gastric cancer (N = 11) vs panel of normal tissues): +
Expression score NHL ([3]; non-Hodgkin lymphoma (N = 10) vs panel of normal tissues): +++
Expression score NSCLC ([3]; non-small cell lung cancer (N = 11) vs panel of normal tissues): ++
Expression score OC ([3]; ovarian cancer (N = 12) vs panel of normal tissues): +++
Expression score PC ([3]; pancreatic cancer (N = 26) vs panel of normal tissues): +
Expression score RCC ([3]; renal cell carcinoma (N = 10) vs panel of normal tissues): ++
Expression score SCLC ([3]; small cell lung cancer (N = 10) vs panel of normal tissues): +
Expression score UBC ([3]; urinary bladder cancer (N = 10) vs panel of normal tissues): +
